Positions count from the first letter of the chain named. The list shows a part of the results. For some of these results: At the low end of the ranking, values are background and their order means little. For some of these results: The exact form of the protein is not confirmed. Where only a bound is given, the exact number is not on record here.

What all share (settings): yeast three-hybrid, YBZ-1, SC-Leu-His + 0.5 mM 3-AT, 4 days
For test [1], the target named is T1, PUM1 PUF domain R1-QFR R2-VFQ R7-NPG S863Q + R864F + Q867R + N899V + Y900F + S1079N + N1080P + E1083G (UniProt Q14671).
T1 sequence: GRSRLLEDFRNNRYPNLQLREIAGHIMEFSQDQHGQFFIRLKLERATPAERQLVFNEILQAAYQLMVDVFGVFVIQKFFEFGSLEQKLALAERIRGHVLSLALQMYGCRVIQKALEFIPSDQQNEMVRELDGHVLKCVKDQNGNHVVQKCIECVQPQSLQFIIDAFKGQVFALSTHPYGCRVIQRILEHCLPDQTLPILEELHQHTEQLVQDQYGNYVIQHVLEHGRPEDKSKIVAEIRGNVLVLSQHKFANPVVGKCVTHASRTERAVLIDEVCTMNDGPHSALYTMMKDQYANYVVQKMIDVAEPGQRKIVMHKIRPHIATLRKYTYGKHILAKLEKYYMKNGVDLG

Test [2] has as its target T2, PUM1 PUF domain R2-VFQ R3-THE R4-TFR N899V + Y900F + C935T + R936H + Q939E + N971T + H972F + Q975R (UniProt Q14671).
T2 sequence: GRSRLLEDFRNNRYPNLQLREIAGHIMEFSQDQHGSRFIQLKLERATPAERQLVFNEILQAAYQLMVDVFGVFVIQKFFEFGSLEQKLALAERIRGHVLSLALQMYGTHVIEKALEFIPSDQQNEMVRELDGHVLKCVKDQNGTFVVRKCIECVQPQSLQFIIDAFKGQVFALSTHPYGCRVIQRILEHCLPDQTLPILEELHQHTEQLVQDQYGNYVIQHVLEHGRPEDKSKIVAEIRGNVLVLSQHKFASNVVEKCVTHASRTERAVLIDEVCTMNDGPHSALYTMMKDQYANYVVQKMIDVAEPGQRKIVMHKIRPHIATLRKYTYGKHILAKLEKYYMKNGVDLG

Test [3] has as its target T3, PUM1 PUF domain R3-THE R4-TFR R7-NPG C935T + R936H + Q939E + N971T + H972F + Q975R + S1079N + N1080P + E1083G (Homo sapiens) (UniProt Q14671).
T3 sequence: T2 sequence with V72N, F73Y, S252N, N253P, E256G

For test [4], the target named is T4, PUM1 PUF domain R5-PHQ R6-SWD C1007P + R1008H + N1043S + Y1044W + Q1047D (UniProt Q14671).
T4 sequence: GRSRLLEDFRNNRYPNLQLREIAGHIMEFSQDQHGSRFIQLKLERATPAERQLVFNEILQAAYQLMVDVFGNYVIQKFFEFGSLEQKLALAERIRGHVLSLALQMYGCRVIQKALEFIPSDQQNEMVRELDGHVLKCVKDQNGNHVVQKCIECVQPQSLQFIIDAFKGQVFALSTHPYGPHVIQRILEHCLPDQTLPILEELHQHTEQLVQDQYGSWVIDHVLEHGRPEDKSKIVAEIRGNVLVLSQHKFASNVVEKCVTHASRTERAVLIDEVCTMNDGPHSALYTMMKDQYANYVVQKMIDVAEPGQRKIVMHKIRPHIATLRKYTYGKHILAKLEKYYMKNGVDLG

Test [5] concerns the target T5, PUM1 PUF domain R6-SWD R7-NPG N1043S + Y1044W + Q1047D + S1079N + N1080P + E1083G (Homo sapiens) (UniProt Q14671).
T5 sequence: T4 sequence with P180C, H181R, S252N, N253P, E256G

The target in test [6] is T6, PUM1 PUF domain R3-THE R4-TFR C935T + R936H + Q939E + N971T + H972F + Q975R (UniProt Q14671).
T6 sequence: T2 sequence with V72N, F73Y

In the case of “GGCUAGAACUAGUGGAUCCCCCGGCGCCCGGCGGCUCGAGCCCGGGUAAGAUUACAACGUCUGCAUGCCGCCGGGCGCCAUGCCUGCAGGUCGACUCUAGAAAACAUG”, the binding signal (log2 enrichment (interaction score)) is -4.43 in test [1], -5.24 in test [2] and -1.51 in test [3].

As for “GGCUAGAACUAGUGGAUCCCCCGGCGCCCGGCGGCUCGAGCCCGGGUAAGUUGCCGUAGUCUGCAUGCCGCCGGGCGCCAUGCCUGCAGGUCGACUCUAGAAAACAUG”, the binding signal (log2 enrichment (interaction score)) in test [1] was -6.72; in test [2], -5.42; in test [4] it was -7.04.

Consider “GGCUAGAACUAGUGGAUCCCCCGGCGCCCGGCGGCUCGAGCCCGGGUAAGGUUAAGUAGUCUGCAUGCCGCCGGGCGCCAUGCCUGCAGGUCGACUCUAGAAAACAUG”, for which the values for the binding signal (log2 enrichment (interaction score)) in test [1], in test [2] and in test [4] were -6.27, -2.17 and -7.71, respectively.

As to “GGCUAGAACUAGUGGAUCCCCCGGCGCCCGGCGGCUCGAGCCCGGGUAAGUCUGCUAAGUCUGCAUGCCGCCGGGCGCCAUGCCUGCAGGUCGACUCUAGAAAACAUG”, the binding signal (log2 enrichment (interaction score)) in test [1] is -4.77; in test [2] it was -5.15; in test [5] it was -0.51.

As to “GGCUAGAACUAGUGGAUCCCCCGGCGCCCGGCGGCUCGAGCCCGGGUAAGUUGGCGAAGUCUGCAUGCCGCCGGGCGCCAUGCCUGCAGGUCGACUCUAGAAAACAUG”, the binding signal (log2 enrichment (interaction score)) in test [1] was -5.05; in test [6], -6.08.

On to “GGCUAGAACUAGUGGAUCCCCCGGCGCCCGGCGGCUCGAGCCCGGGUAAGUAGAACGCGUCUGCAUGCCGCCGGGCGCCAUGCCUGCAGGUCGACUCUAGAAAACAUG”, for which the binding signal (log2 enrichment (interaction score)) in test [1] is below -5.77; in test [2], -5.77; in test [5], -0.87.

Regarding “GGCUAGAACUAGUGGAUCCCCCGGCGCCCGGCGGCUCGAGCCCGGGUAAGCUGACCUCGUCUGCAUGCCGCCGGGCGCCAUGCCUGCAGGUCGACUCUAGAAAACAUG”, the binding signal (log2 enrichment (interaction score)) in test [1] was -4.99; in test [6], below -6.95.

(Values after publication PMC8384837.)
